In the supplement of paper PMC10849652:
Some of the results follow.

By UniProt entry, the sequences of proteins in these tests, tags left out. Where a name states a change or a piece, a line headed by the entry shows the natural chain unless it says otherwise.
UniProt Q969G3, whole entry, looked up: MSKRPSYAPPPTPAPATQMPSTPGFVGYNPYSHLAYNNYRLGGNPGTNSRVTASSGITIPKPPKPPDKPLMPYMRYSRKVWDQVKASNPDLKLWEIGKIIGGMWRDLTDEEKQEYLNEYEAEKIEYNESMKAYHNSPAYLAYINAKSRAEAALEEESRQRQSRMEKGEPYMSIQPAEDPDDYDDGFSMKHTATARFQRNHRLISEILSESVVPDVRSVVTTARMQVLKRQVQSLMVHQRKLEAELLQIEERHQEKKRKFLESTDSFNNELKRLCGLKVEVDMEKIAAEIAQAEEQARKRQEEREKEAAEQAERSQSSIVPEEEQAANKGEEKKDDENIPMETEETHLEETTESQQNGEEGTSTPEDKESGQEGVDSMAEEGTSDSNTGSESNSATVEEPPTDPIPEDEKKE
UniProt O00161: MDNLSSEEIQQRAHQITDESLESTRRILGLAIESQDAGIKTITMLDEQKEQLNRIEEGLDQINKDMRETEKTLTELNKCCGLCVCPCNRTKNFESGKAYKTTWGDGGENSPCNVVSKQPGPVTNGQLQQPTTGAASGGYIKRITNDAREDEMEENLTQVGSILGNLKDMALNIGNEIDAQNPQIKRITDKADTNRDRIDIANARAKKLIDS
UniProt O75940: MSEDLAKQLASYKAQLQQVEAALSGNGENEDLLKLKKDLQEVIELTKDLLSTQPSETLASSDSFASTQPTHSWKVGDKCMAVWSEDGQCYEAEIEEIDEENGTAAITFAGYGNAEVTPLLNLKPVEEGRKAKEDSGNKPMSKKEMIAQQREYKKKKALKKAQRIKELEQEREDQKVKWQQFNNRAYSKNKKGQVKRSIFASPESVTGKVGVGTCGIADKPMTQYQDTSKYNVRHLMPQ
UniProt Q96SB8: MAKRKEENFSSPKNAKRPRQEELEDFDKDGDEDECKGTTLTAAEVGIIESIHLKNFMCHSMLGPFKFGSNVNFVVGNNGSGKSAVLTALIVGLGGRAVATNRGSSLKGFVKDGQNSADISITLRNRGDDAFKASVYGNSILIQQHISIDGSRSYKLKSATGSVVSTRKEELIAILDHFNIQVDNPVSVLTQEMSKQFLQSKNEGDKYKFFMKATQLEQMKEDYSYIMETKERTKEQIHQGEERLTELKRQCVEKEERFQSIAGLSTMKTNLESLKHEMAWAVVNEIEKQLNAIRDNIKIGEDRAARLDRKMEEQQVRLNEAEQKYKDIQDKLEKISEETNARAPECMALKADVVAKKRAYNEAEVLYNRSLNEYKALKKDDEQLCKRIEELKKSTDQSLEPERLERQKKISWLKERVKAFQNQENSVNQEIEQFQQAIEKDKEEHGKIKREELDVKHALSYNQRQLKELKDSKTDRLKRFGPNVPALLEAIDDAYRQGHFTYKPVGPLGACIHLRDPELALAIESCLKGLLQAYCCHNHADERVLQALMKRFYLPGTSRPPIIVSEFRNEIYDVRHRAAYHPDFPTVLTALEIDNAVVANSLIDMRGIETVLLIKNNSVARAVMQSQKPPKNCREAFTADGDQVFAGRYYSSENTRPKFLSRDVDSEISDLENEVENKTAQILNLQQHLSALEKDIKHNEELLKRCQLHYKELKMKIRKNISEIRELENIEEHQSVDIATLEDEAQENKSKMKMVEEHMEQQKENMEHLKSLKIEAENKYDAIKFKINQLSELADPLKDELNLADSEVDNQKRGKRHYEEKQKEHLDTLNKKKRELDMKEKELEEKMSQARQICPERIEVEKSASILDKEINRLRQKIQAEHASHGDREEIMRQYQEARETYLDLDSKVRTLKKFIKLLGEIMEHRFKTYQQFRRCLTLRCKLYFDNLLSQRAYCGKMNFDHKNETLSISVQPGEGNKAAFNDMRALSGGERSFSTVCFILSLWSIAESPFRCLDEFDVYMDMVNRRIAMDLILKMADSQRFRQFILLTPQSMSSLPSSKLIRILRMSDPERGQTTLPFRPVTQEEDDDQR
UniProt Q96GM5, whole entry, looked up: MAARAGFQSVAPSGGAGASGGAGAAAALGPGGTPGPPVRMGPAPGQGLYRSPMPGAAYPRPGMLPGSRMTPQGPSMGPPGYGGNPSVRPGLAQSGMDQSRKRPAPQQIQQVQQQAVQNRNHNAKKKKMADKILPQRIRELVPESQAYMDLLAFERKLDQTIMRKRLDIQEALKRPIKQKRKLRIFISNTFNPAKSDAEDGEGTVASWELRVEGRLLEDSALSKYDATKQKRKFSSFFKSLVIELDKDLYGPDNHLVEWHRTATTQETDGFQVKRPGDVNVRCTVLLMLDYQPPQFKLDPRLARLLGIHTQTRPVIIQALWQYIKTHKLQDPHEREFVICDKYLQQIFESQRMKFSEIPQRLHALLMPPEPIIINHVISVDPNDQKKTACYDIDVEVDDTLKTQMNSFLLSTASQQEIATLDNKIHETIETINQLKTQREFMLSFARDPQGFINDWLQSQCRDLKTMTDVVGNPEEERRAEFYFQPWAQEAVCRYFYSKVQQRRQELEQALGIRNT
UniProt P62304, whole entry, looked up: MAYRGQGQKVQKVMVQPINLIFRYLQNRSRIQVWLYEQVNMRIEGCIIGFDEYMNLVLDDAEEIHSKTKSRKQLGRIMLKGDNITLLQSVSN
UniProt Q92922, whole entry, looked up: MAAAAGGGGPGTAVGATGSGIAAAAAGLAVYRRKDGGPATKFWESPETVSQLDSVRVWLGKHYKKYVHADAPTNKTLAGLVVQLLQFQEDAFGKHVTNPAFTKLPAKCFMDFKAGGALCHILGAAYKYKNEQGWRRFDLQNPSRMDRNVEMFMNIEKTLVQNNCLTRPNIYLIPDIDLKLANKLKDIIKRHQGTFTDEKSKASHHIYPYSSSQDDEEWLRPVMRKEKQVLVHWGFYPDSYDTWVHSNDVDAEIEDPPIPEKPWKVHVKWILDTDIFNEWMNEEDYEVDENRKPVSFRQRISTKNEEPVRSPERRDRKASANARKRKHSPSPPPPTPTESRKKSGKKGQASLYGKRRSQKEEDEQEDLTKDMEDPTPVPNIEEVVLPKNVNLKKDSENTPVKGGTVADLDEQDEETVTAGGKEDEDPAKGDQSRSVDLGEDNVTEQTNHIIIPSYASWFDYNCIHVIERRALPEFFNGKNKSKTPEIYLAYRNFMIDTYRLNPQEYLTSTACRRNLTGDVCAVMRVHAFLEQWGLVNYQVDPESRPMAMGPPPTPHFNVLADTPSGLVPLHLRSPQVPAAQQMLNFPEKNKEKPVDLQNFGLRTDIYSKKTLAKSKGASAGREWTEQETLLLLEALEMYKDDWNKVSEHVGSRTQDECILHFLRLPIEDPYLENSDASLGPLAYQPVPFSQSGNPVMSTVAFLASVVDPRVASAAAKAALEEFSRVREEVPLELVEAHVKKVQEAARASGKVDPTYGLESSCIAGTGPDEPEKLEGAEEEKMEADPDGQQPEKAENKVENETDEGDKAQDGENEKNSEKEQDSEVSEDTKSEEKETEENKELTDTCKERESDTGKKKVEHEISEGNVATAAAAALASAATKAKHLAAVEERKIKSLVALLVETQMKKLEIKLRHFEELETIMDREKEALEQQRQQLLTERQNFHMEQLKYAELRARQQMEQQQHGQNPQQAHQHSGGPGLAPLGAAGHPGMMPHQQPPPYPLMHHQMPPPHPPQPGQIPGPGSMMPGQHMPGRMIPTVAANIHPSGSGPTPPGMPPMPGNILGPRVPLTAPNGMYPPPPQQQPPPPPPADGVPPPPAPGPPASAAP
UniProt O60493, whole entry, looked up: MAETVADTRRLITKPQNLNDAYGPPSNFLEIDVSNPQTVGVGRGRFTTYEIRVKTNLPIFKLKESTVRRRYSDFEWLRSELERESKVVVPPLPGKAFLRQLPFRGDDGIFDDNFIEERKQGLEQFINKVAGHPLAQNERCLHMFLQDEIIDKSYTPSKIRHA
UniProt Q9Y5X2: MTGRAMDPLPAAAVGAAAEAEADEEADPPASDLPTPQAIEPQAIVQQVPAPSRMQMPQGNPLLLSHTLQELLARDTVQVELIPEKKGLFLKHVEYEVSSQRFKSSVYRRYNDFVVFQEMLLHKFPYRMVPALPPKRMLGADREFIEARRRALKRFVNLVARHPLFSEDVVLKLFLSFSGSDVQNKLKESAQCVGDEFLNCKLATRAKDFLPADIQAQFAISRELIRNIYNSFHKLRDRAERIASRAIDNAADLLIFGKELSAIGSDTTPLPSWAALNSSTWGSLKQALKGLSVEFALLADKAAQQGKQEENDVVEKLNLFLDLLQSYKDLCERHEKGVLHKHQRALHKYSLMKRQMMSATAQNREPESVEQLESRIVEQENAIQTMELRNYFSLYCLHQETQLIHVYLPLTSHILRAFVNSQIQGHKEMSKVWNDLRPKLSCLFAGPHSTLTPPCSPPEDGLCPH
UniProt O75391: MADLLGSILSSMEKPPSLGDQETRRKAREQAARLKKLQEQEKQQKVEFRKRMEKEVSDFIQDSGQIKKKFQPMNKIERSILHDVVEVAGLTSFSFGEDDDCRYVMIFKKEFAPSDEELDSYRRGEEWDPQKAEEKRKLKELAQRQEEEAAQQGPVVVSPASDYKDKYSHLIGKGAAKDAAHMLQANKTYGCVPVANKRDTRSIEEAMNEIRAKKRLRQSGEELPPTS
UniProt Q9H0W8: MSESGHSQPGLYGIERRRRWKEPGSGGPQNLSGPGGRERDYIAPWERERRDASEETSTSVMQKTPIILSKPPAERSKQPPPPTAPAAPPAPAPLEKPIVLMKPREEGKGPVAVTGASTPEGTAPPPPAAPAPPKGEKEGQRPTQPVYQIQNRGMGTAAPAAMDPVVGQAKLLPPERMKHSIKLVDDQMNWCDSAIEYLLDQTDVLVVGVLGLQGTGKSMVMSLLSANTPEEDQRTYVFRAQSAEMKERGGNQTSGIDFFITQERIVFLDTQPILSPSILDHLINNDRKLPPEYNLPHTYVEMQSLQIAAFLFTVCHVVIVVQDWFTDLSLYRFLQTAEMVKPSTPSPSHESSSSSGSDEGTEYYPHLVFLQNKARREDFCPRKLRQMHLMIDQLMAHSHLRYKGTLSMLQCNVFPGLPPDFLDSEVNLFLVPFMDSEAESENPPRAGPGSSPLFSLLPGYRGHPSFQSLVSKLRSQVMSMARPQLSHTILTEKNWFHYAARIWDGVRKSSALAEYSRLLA
UniProt Q8WVK2: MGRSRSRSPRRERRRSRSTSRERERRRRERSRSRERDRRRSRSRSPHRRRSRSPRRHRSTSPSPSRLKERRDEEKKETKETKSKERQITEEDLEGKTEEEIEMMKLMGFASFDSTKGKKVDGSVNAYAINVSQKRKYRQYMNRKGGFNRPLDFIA
UniProt Q9Y5X1: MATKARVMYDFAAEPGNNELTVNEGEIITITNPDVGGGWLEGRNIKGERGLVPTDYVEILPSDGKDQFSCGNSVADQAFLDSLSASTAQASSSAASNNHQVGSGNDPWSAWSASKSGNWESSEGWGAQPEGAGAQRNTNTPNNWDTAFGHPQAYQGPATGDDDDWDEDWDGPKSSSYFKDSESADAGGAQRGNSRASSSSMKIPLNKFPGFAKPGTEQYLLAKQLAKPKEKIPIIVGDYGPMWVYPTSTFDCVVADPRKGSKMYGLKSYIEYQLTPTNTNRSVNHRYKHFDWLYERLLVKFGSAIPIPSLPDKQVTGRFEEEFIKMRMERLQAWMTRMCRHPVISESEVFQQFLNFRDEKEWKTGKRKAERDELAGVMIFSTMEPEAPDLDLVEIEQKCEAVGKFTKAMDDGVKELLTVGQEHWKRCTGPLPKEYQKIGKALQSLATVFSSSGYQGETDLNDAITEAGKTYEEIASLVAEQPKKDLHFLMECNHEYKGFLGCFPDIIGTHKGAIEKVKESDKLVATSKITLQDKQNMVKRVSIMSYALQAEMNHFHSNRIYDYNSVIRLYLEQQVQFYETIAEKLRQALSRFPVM
UniProt Q02446, whole entry, looked up: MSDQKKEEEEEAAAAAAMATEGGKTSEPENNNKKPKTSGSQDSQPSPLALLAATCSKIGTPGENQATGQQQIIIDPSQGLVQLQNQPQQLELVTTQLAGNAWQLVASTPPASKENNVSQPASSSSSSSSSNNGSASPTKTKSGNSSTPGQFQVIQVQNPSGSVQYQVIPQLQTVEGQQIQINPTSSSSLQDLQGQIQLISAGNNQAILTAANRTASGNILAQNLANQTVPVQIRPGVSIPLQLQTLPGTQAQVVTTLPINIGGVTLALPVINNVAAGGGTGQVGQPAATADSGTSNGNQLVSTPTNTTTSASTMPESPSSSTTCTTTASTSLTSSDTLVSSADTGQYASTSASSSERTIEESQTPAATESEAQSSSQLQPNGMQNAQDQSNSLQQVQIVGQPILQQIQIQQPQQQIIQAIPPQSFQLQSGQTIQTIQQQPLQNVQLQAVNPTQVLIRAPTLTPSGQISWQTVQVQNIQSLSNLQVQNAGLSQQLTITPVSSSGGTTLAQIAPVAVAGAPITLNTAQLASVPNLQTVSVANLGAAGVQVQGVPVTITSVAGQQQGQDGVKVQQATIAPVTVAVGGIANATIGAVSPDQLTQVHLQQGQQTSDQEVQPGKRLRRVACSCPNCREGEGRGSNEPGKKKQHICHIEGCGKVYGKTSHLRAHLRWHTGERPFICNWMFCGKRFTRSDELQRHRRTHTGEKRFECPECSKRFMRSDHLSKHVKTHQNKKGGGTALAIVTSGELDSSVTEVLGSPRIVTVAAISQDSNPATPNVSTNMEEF

Assays:
Assay in all cases: log2 fold change, soluble protein after heating vs DMSO (PISA); higher = thermal stabilisation; K562 lysate, 10 uM; active = over 0.2 and 3.5 SD of the protein, either way, in both replicates (recomputed)
[1] = compound: CCCS(=O)(=O)Nc1ccc(F)c(C(=O)c2c[nH]c3ncc(-c4ccc(Cl)cc4)cc23)c1F [vemurafenib]
Outline: (§1)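 Soluble protein was defined as the supernatant remaining after 21,000xg for 90 min, following pooling of heated aliquots and adjustment to 0.5% NP-40 at 4°C. Before that, crude K562 extract at 1 mg/mL protein in PBS pH 7.4 with 1 mM MgCl2 was treated with 10 μM compound for 30 min and heated for 3 min across 48°C-58°C. Quantification used TMTpro 16plex LC-MS/MS with channel sums equalised, and values are log-two fold changes in thermal stability relative to solvent controls from duplicates.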

[2] = compound: CCCS(=O)(=O)Nc1ccc(F)c(C(=O)c2c[nH]c3ncc(Cl)cc23)c1F
Outline: as §1

[3] = compound: CCN(CCCOc1ccc2c(Nc3cc(CC(=O)Nc4cccc(F)c4)[nH]n3)ncnc2c1)CCOP(=O)(O)O [barasertib]
Outline: as §1

[4] = compound: CC[C@@H]1C(=O)N(C)c2cnc(Nc3ccc(C(=O)NC4CCN(C)CC4)cc3OC)nc2N1C1CCCC1
Outline: as §1

[5] = compound: CC[C@@H]1C(=O)N(C)c2cnc(Nc3ccc(C(=O)N[C@H]4CC[C@H](N5CCN(CC6CC6)CC5)CC4)cc3OC)nc2N1C(C)C [volasertib]
Outline: as §1

[6] = compound: CCn1c(C(=O)N(C2CC2)C2CC2)cc2c3c(ncn3C)c(Nc3cc(C)n(C)n3)nc21
Outline: as §1

[7] = compound: CCn1cc(-c2ccnc3[nH]c(-c4cccc(CN(C)C)c4)cc23)c(-c2ccc(NC(=O)N(C)C)cc2)n1
Outline: as §1

[8] = compound: CN1CCC(CNc2ccc3ncc(-c4cccc(OC(F)(F)F)c4)n3n2)CC1
Outline: as §1

[9] = compound: CN1CCN(CCOc2cc(OC3CCOCC3)c3c(Nc4c(Cl)ccc5c4OCO5)ncnc3c2)CC1 [saracatinib]
Outline: as §1

[10] = compound: CN1CCN(c2nc(C3=C(c4c[nH]c5ccccc45)C(=O)NC3=O)c3ccccc3n2)CC1 [sotrastaurin]
Outline: as §1

Measured: log2 fold change

SMARCE1 (UniProt Q969G3)
inactive: [1] 0.004 | [2] 0.02 | [3] -0.018 | [4] -0.004 | [5] -0.02 | [6] 0.006 | [7] 0.082 | [8] -0.055 | [9] 0.032 | [10] 0.015

SMC2 (UniProt O95347)
inactive: [1] 0.002 | [2] 0.007 | [3] -0.001 | [4] -0.033 | [5] -0.047 | [6] -0.002 | [7] 0.134 | [8] -0.121 | [9] 0.005 | [10] 0.014

SNX6, A0A0A0MRI2
inactive: [1] 0.005 | [2] 0.025 | [3] 0.006 | [4] -0.111 | [5] -0.05 | [6] 0.026 | [7] 0.21 | [8] -0.126 | [9] -0.002 | [10] -0.013

SNAP23 (UniProt O00161)
inactive: [1] 0.013 | [2] -0.025 | [3] 0.041 | [4] -0.009 | [5] 0.034 | [6] 0.033 | [7] 0.025 | [8] 0.014 | [9] -0.011 | [10] -0.001

SP1 (UniProt P08047)
inactive: [1] -0.115 | [2] 0.056 | [3] 0.045 | [4] 0.015 | [5] 0.043 | [6] -0.008 | [7] -0.061 | [8] 0.019 | [9] 0.037 | [10] -0.154

SMNDC1 (UniProt O75940)
inactive: [1] 0.002 | [2] -0.03 | [3] -0.046 | [4] 0.066 | [5] 0.027 | [6] -0.02 | [7] 0.055 | [8] -0.011 | [9] -0.021 | [10] 0.048

SMC6 (UniProt Q96SB8)
inactive: [1] 0.044 | [2] 0.01 | [3] 0.014 | [4] 0.047 | [5] -0.031 | [6] 0.012 | [7] -0.036 | [8] 0.024 | [9] 0.046 | [10] 0.027

SMG8 isoform 2 (UniProt Q8ND04)
inactive: [1] 0.032 | [2] 0.047 | [3] -0.045 | [4] -0.013 | [5] -0.033 | [6] 0.02 | [7] 0.096 | [8] -0.09 | [9] 0.056 | [10] -0.03

SORBS3 (UniProt O60504)
inactive: [1] -0.092 | [2] 0.067 | [3] -0.032 | [4] 0.034 | [5] -0.129 | [6] -0.05 | [7] -0.025 | [8] 0.004 | [9] 0.052 | [10] -0.011

SMARCD1 (UniProt Q96GM5)
inactive: [1] 0.01 | [2] 0.028 | [3] 0.008 | [4] -0.012 | [5] -0.01 | [6] 0.004 | [7] -0.035 | [8] 0 | [9] 0.066 | [10] -0.025

SNRPE (UniProt P62304)
inactive: [1] 0.038 | [2] 0.022 | [3] -0.079 | [4] 0.083 | [5] 0.028 | [6] 0.032 | [7] -0.162 | [8] 0.055 | [9] 0.017 | [10] 0.017

SMARCC1 (UniProt Q92922)
inactive: [1] 0.026 | [2] 0.011 | [3] 0.002 | [4] -0.008 | [5] -0.036 | [6] -0.005 | [7] -0.077 | [8] 0.028 | [9] 0.007 | [10] -0.013

SNX3 (UniProt O60493)
inactive: [1] -0.09 | [2] -0.023 | [3] 0.017 | [4] -0.034 | [5] -0.054 | [6] 0.071 | [7] 0.003 | [8] 0.016 | [9] 0.009 | [10] 0.006

SNCG (UniProt O76070)
inactive: [1] -0.001 | [2] -0.004 | [3] 0.054 | [4] 0.074 | [5] 0.051 | [6] -0.056 | [7] -0.061 | [8] 0.073 | [9] -0.028 | [10] -0.02

SMG5 (UniProt Q9UPR3)
inactive: [1] 0.009 | [2] 0.048 | [3] 0.047 | [4] 0.029 | [5] -0.006 | [6] 0.068 | [7] 0.038 | [8] -0.004 | [9] 0.05 | [10] -0.024

SNX8 (UniProt Q9Y5X2)
inactive: [1] 0.019 | [2] -0.002 | [3] -0.04 | [4] 0.033 | [5] 0.013 | [6] -0.019 | [7] 0.029 | [8] -0.017 | [9] -0.027 | [10] 0.018

Two records drawn at random from those above, as already listed:
SMG5 (UniProt Q9UPR3)
inactive: [1] 0.009 | [2] 0.048 | [3] 0.047 | [4] 0.029 | [5] -0.006 | [6] 0.068 | [7] 0.038 | [8] -0.004 | [9] 0.05 | [10] -0.024

SNCG (UniProt O76070)
inactive: [1] -0.001 | [2] -0.004 | [3] 0.054 | [4] 0.074 | [5] 0.051 | [6] -0.056 | [7] -0.061 | [8] 0.073 | [9] -0.028 | [10] -0.02

(next part)

SPAG7 (UniProt O75391)
inactive: [1] -0.001 | [2] 0.014 | [3] -0.014 | [4] 0.12 | [5] 0.032 | [6] -0.022 | [7] 0.047 | [8] 0.022 | [9] 0.034 | [10] -0.019

SMARCAL1 (UniProt Q9NZC9)
inactive: [1] -0.011 | [2] 0.043 | [3] 0.152 | [4] 0.102 | [5] -0.006 | [6] 0.006 | [7] 0.087 | [8] -0.071 | [9] 0.013 | [10] 0.041

SNRPD2 (UniProt P62316)
inactive: [1] -0.008 | [2] -0.019 | [3] 0.001 | [4] 0.058 | [5] 0.033 | [6] 0.018 | [7] -0.083 | [8] 0.051 | [9] -0.021 | [10] 0.011

SMG9 (UniProt Q9H0W8)
inactive: [1] -0.001 | [2] 0.014 | [3] 0.056 | [4] 0.073 | [5] -0.079 | [6] -0.018 | [7] -0.081 | [8] 0.093 | [9] 0.011 | [10] 0.046

SNAP29 (UniProt O95721)
inactive: [1] -0.014 | [2] 0 | [3] -0.015 | [4] 0.041 | [5] 0.019 | [6] -0.032 | [7] -0.014 | [8] 0.046 | [9] -0.015 | [10] 0.004

SNRNP27 (UniProt Q8WVK2)
inactive: [1] -0.008 | [2] 0.025 | [3] -0.058 | [4] 0.035 | [5] 0.017 | [6] -0.026 | [7] 0.031 | [8] 0.01 | [9] -0.012 | [10] 0.099

SNRNP48 (UniProt Q6IEG0)
inactive: [1] 0.254 | [2] 0.058 | [3] 0.014 | [4] -0.092 | [5] -0.036 | [6] 0.052 | [7] -0.294 | [8] -0.025 | [9] 0.019 | [10] 0.016

SMG7 (UniProt Q92540)
inactive: [1] 0.073 | [2] 0.011 | [3] 0.098 | [4] 0.071 | [5] -0.044 | [6] 0.074 | [7] -0.038 | [8] -0.014 | [9] 0.045 | [10] -0.02

SNX9 (UniProt Q9Y5X1)
inactive: [1] -0.017 | [2] 0.001 | [3] 0.028 | [4] -0.025 | [5] -0.017 | [6] 0.035 | [7] -0.012 | [8] 0.013 | [9] -0.001 | [10] 0.02

SP4 (UniProt Q02446)
inactive: [1] -0.063 | [2] 0.081 | [3] 0.108 | [4] -0.053 | [5] -0.085 | [6] 0.014 | [7] -0.37 | [8] 0.055 | [9] 0.025 | [10] -0.041

SNW1 (UniProt Q13573)
inactive: [1] 0.019 | [2] 0.01 | [3] -0.019 | [4] 0.07 | [5] -0.021 | [6] 0 | [7] 0.191 | [8] -0.037 | [9] 0.016 | [10] -0.037
